Assay results: article doi:10.1101/2023.08.23.554407
These are yes or no findings as the source states them, for the method shown. In cells and extracts the contact can be indirect. Some results given as binding are weak or reduced against the parent protein; the word gives no strength.

Chains of the proteins cited; added tags and fusions are not shown.
UniProt Q9UPY3: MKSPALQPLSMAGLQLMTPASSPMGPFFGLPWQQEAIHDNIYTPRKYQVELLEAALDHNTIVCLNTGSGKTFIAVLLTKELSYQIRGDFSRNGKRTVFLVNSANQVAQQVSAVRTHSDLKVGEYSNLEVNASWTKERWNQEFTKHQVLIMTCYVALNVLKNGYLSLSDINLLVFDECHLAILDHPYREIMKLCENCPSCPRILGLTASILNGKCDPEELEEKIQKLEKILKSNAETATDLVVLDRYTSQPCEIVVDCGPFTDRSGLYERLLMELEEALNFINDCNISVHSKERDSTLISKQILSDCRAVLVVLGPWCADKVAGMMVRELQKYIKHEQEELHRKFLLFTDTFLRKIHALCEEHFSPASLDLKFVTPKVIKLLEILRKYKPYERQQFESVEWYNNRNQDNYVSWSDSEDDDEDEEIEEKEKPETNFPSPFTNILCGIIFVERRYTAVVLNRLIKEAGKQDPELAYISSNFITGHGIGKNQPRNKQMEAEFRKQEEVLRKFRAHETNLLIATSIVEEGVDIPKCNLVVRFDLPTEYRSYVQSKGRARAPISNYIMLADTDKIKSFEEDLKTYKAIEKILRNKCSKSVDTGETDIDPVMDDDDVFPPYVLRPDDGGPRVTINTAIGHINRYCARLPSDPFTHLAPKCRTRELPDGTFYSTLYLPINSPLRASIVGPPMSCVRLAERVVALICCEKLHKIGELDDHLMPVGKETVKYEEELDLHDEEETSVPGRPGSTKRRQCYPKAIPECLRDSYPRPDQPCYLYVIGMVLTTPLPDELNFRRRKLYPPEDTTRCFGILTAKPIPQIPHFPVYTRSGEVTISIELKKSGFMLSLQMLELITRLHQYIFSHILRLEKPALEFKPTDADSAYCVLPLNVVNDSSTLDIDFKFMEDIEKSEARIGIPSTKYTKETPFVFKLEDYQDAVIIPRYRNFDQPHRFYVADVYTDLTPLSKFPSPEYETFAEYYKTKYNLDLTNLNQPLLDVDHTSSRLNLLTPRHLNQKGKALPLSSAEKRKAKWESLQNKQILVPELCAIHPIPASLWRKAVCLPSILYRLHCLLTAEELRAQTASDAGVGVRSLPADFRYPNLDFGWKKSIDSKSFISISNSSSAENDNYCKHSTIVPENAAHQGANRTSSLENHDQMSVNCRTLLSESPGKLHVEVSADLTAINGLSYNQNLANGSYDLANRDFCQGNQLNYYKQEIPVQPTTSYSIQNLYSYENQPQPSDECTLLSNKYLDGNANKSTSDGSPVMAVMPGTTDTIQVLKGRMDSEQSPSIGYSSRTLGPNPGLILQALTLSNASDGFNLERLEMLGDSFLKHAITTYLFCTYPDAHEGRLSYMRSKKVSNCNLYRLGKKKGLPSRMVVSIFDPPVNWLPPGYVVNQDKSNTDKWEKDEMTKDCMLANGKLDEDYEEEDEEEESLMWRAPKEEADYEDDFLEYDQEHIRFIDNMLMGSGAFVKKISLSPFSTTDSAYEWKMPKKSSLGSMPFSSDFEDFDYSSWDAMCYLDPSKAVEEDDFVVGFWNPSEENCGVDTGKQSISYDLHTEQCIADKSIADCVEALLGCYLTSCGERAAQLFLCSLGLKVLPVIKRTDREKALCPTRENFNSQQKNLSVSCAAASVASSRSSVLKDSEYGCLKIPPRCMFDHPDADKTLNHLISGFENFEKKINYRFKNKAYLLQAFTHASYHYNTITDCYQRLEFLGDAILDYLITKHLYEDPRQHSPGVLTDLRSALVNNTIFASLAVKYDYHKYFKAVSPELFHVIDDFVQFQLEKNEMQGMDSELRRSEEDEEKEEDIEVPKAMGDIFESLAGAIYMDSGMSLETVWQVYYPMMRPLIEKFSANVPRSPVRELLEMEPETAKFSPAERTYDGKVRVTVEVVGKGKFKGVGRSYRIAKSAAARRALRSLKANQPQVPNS
UniProt P19525: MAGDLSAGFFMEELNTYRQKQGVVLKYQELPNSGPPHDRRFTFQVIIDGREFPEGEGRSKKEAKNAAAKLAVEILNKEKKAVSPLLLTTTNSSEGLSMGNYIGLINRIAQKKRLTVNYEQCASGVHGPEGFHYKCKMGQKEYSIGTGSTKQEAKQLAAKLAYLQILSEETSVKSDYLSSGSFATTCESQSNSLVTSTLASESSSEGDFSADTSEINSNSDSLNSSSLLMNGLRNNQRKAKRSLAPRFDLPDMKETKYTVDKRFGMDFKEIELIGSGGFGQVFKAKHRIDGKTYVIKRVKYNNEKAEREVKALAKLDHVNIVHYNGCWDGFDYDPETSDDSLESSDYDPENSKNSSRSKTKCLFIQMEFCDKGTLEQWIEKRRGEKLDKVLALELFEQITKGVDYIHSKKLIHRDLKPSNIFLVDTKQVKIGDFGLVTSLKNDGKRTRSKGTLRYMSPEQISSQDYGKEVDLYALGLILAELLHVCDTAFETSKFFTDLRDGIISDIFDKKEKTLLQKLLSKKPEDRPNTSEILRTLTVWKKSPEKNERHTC

Molecular target: Flag-HA-tagged human Dicer WT (human) (UniProt Q9UPY3)
Test: co-IP

| Molecule | binding |
| --- | --- |
| dsRNA-activated protein kinase PKR (from UniProt P19525 1-551) (enzyme) | binds |
| PACT (protein, UniProt O75569 1-313) MSQSRHRAEAPPLEREDSGTFSLGKMITAKPGKTPIQVLHEYGMKTKNIPVYECERSDVQIHVPTFTFRVTVGDITCTGEGTSKKLAKHRAAEAAINILKANASICFAVPDPLMPDPSKQPKNQLNPIGSLQELAIHHGWRLPEYTLSQEGGPAHKREYTTICRLESFMETGKGASKKQAKRNAAEKFLAKFSNISPENHISLTNVVGHSLGCTWHSLRNSPGEKINLLKRSLLSIPNTDYIQLLSEIAKEQGFNITYLDIDELSANGQYQCLAELSTSPITVCHGSGISCGNAQSDAAHNALQYLKIIAERK | binds |
